Values of other authors as cited in patent US8920846B2, “Microcapsule and production method thereof” (Sumitomo Chemical Company, Limited, priority 2009, dated 2014).
Some of these results come from one statement about several compounds together.

Settings: at 20° C.

For `O=C1OCc2c(Cl)c(Cl)c(Cl)c(Cl)c21` [fthalide], the water solubility is given as “less than 30 ppm”.
